Source: patent CN116724055A
These are yes or no findings as the source states them, for the method shown. A result given as binding can be weak or reduced; the word gives no strength.

Legend:
hIL1RAP(21-367) (人) [1] = assay: binding ELISA, coated hIL1RAP aa21-367
hIL1RAP(21-367) (人) [2] = assay: BLI (BLItz), protein A sensor

Binder | binding (hIL1RAP(21-367) (人) [1]) | binding (hIL1RAP(21-367) (人) [2])
h48D2 VH2:VL2 (antibody, human IgG1, kappa, L234A L235A, V domains shown) VH: EVQLVESGGALVQPGGSLRLSCIVSGPSLSHFDITWFRQAPGKGLEWVATISPGVSTYYASWAKSRFTISTDTSKNTLFLQMDSLRAEDTAVYYCARGGVGSSWKAFDLWGPGTLVTVSS VL: QIVLTQSPATLSASVGDRVTITCQASESISTALAWYQQKPGKAPKLLIYKASTLPSGVPSRFSGSGSGTEFTLTISSLQPDDSATYYCQQGFSSGNVHNAFGQGTKLEIKR | binds | binds
h48D2 VH2:VL3 (antibody, human IgG1, kappa, L234A L235A, V domains shown) VH: EVQLVESGGALVQPGGSLRLSCIVSGPSLSHFDITWFRQAPGKGLEWVATISPGVSTYYASWAKSRFTISTDTSKNTLFLQMDSLRAEDTAVYYCARGGVGSSWKAFDLWGPGTLVTVSS VL: DILLTQTPSVVSASVGDRVTITCQASESISTALAWYQQKPGQAPRLLIYKASTLPSGVPSRFRGSGSGTDFTLTITSLQPEDFATYYCQQGFSSGNVHNAFGGGTRLEIKR | binds | binds
h48D2 VH2:VL4 (antibody, human IgG1, kappa, L234A L235A, V domains shown) VH: EVQLVESGGALVQPGGSLRLSCIVSGPSLSHFDITWFRQAPGKGLEWVATISPGVSTYYASWAKSRFTISTDTSKNTLFLQMDSLRAEDTAVYYCARGGVGSSWKAFDLWGPGTLVTVSS VL: ELVMTQSPSSVSASVGDRVTITCQASESISTALAWYQQKPGKAPKLLIYKASTLPSGVPSRFSGSGSGTDFTLTINSLQPEDFATYYCQQGFSSGNVHNAFGGGTKVEIKR | binds | binds
h48D2 VH2:VL5 (antibody, human IgG1, kappa, L234A L235A, V domains shown) VH: EVQLVESGGALVQPGGSLRLSCIVSGPSLSHFDITWFRQAPGKGLEWVATISPGVSTYYASWAKSRFTISTDTSKNTLFLQMDSLRAEDTAVYYCARGGVGSSWKAFDLWGPGTLVTVSS VL: APVLTQSPATLEASVGDRVTITCQASESISTALAWYQQKPGQPPKLLIYKASTLPSGVPSRFSGSGSGTEFTLTISDLESDDAATYYCQQGFSSGNVHNAFGGGTEVVVKR | binds | binds
h48D2 VH3:VL1 (antibody, human IgG1, kappa, L234A L235A, V domains shown) VH: EVQLLESGGGLVLPGGSLRLSCAASGPSLSHFDITWVRQAPGKGLEWVSTISPGVSTYYASWAKSRFTISRDNSKNTLYLQMSSLRAEDTAVYYCARGGVGSSWKAFDLWGLGTTVTVSS VL: DIVMTQSPSSLSASVGDRVTITCQASESISTALAWYQQKPGKAPKLLIYKASTLPSGVPSRFSGSGSGTDFTLTISSLQPEDFATYYCQQGFSSGNVHNAFGGGTKVVIKR | binds | binds
h48D2 VH3:VL2 (antibody, human IgG1, kappa, L234A L235A, V domains shown) VH: EVQLLESGGGLVLPGGSLRLSCAASGPSLSHFDITWVRQAPGKGLEWVSTISPGVSTYYASWAKSRFTISRDNSKNTLYLQMSSLRAEDTAVYYCARGGVGSSWKAFDLWGLGTTVTVSS VL: QIVLTQSPATLSASVGDRVTITCQASESISTALAWYQQKPGKAPKLLIYKASTLPSGVPSRFSGSGSGTEFTLTISSLQPDDSATYYCQQGFSSGNVHNAFGQGTKLEIKR | binds | binds
h48D2 VH3:VL3 (antibody, human IgG1, kappa, L234A L235A, V domains shown) VH: EVQLLESGGGLVLPGGSLRLSCAASGPSLSHFDITWVRQAPGKGLEWVSTISPGVSTYYASWAKSRFTISRDNSKNTLYLQMSSLRAEDTAVYYCARGGVGSSWKAFDLWGLGTTVTVSS VL: DILLTQTPSVVSASVGDRVTITCQASESISTALAWYQQKPGQAPRLLIYKASTLPSGVPSRFRGSGSGTDFTLTITSLQPEDFATYYCQQGFSSGNVHNAFGGGTRLEIKR | binds | binds
h48D2 VH3:VL4 (antibody, human IgG1, kappa, L234A L235A, V domains shown) VH: EVQLLESGGGLVLPGGSLRLSCAASGPSLSHFDITWVRQAPGKGLEWVSTISPGVSTYYASWAKSRFTISRDNSKNTLYLQMSSLRAEDTAVYYCARGGVGSSWKAFDLWGLGTTVTVSS VL: ELVMTQSPSSVSASVGDRVTITCQASESISTALAWYQQKPGKAPKLLIYKASTLPSGVPSRFSGSGSGTDFTLTINSLQPEDFATYYCQQGFSSGNVHNAFGGGTKVEIKR | binds | binds
h48D2 VH3:VL5 (antibody, human IgG1, kappa, L234A L235A, V domains shown) VH: EVQLLESGGGLVLPGGSLRLSCAASGPSLSHFDITWVRQAPGKGLEWVSTISPGVSTYYASWAKSRFTISRDNSKNTLYLQMSSLRAEDTAVYYCARGGVGSSWKAFDLWGLGTTVTVSS VL: APVLTQSPATLEASVGDRVTITCQASESISTALAWYQQKPGQPPKLLIYKASTLPSGVPSRFSGSGSGTEFTLTISDLESDDAATYYCQQGFSSGNVHNAFGGGTEVVVKR | binds | binds
h48D2 VH4:VL1 (antibody, human IgG1, kappa, L234A L235A, V domains shown) VH: QVQLQESGPGLVKPSETLSLTCTVSGPSLSHFDITWIRQPPGKGLEWIGTISPGVSTYYASWAKSRFTISVDTSKNQFSLKLTSVTAADTATYYCARGGVGSSWKAFDLWGPGTLVTVSS VL: DIVMTQSPSSLSASVGDRVTITCQASESISTALAWYQQKPGKAPKLLIYKASTLPSGVPSRFSGSGSGTDFTLTISSLQPEDFATYYCQQGFSSGNVHNAFGGGTKVVIKR | binds | binds
h48D2 VH4:VL2 (antibody, human IgG1, kappa, L234A L235A, V domains shown) VH: QVQLQESGPGLVKPSETLSLTCTVSGPSLSHFDITWIRQPPGKGLEWIGTISPGVSTYYASWAKSRFTISVDTSKNQFSLKLTSVTAADTATYYCARGGVGSSWKAFDLWGPGTLVTVSS VL: QIVLTQSPATLSASVGDRVTITCQASESISTALAWYQQKPGKAPKLLIYKASTLPSGVPSRFSGSGSGTEFTLTISSLQPDDSATYYCQQGFSSGNVHNAFGQGTKLEIKR | binds | binds
h48D2 VH4:VL3 (antibody, human IgG1, kappa, L234A L235A, V domains shown) VH: QVQLQESGPGLVKPSETLSLTCTVSGPSLSHFDITWIRQPPGKGLEWIGTISPGVSTYYASWAKSRFTISVDTSKNQFSLKLTSVTAADTATYYCARGGVGSSWKAFDLWGPGTLVTVSS VL: DILLTQTPSVVSASVGDRVTITCQASESISTALAWYQQKPGQAPRLLIYKASTLPSGVPSRFRGSGSGTDFTLTITSLQPEDFATYYCQQGFSSGNVHNAFGGGTRLEIKR | binds | binds
h48D2 VH4:VL4 (antibody, human IgG1, kappa, L234A L235A, V domains shown) VH: QVQLQESGPGLVKPSETLSLTCTVSGPSLSHFDITWIRQPPGKGLEWIGTISPGVSTYYASWAKSRFTISVDTSKNQFSLKLTSVTAADTATYYCARGGVGSSWKAFDLWGPGTLVTVSS VL: ELVMTQSPSSVSASVGDRVTITCQASESISTALAWYQQKPGKAPKLLIYKASTLPSGVPSRFSGSGSGTDFTLTINSLQPEDFATYYCQQGFSSGNVHNAFGGGTKVEIKR | binds | binds
h48D2 VH4:VL5 (antibody, human IgG1, kappa, L234A L235A, V domains shown) VH: QVQLQESGPGLVKPSETLSLTCTVSGPSLSHFDITWIRQPPGKGLEWIGTISPGVSTYYASWAKSRFTISVDTSKNQFSLKLTSVTAADTATYYCARGGVGSSWKAFDLWGPGTLVTVSS VL: APVLTQSPATLEASVGDRVTITCQASESISTALAWYQQKPGQPPKLLIYKASTLPSGVPSRFSGSGSGTEFTLTISDLESDDAATYYCQQGFSSGNVHNAFGGGTEVVVKR | binds | binds
h48D2 VH5:VL1 (antibody, human IgG1, kappa, L234A L235A, V domains shown) VH: QEQLEESGGGLVKPGGTLSLTCTVSGPSLSHFDITWIRQAPGSGLEWIGTISPGVSTYYASWAKSRVTISVDTSLNTVSLKLSSVTAADTATYFCARGGVGSSWKAFDLWGPGTLVTISS VL: DIVMTQSPSSLSASVGDRVTITCQASESISTALAWYQQKPGKAPKLLIYKASTLPSGVPSRFSGSGSGTDFTLTISSLQPEDFATYYCQQGFSSGNVHNAFGGGTKVVIKR | binds | binds
h48D2 VH5:VL2 (antibody, human IgG1, kappa, L234A L235A, V domains shown) VH: QEQLEESGGGLVKPGGTLSLTCTVSGPSLSHFDITWIRQAPGSGLEWIGTISPGVSTYYASWAKSRVTISVDTSLNTVSLKLSSVTAADTATYFCARGGVGSSWKAFDLWGPGTLVTISS VL: QIVLTQSPATLSASVGDRVTITCQASESISTALAWYQQKPGKAPKLLIYKASTLPSGVPSRFSGSGSGTEFTLTISSLQPDDSATYYCQQGFSSGNVHNAFGQGTKLEIKR | binds | binds
h48D2 VH5:VL3 (antibody, human IgG1, kappa, L234A L235A, V domains shown) VH: QEQLEESGGGLVKPGGTLSLTCTVSGPSLSHFDITWIRQAPGSGLEWIGTISPGVSTYYASWAKSRVTISVDTSLNTVSLKLSSVTAADTATYFCARGGVGSSWKAFDLWGPGTLVTISS VL: DILLTQTPSVVSASVGDRVTITCQASESISTALAWYQQKPGQAPRLLIYKASTLPSGVPSRFRGSGSGTDFTLTITSLQPEDFATYYCQQGFSSGNVHNAFGGGTRLEIKR | binds | binds
h48D2 VH5:VL4 (antibody, human IgG1, kappa, L234A L235A, V domains shown) VH: QEQLEESGGGLVKPGGTLSLTCTVSGPSLSHFDITWIRQAPGSGLEWIGTISPGVSTYYASWAKSRVTISVDTSLNTVSLKLSSVTAADTATYFCARGGVGSSWKAFDLWGPGTLVTISS VL: ELVMTQSPSSVSASVGDRVTITCQASESISTALAWYQQKPGKAPKLLIYKASTLPSGVPSRFSGSGSGTDFTLTINSLQPEDFATYYCQQGFSSGNVHNAFGGGTKVEIKR | binds | binds
h48D2 VH5.AP:VL4 (antibody, human IgG1, kappa, L234A L235A, V domains shown) VH: QEQLEESGGGLVKPGGTLSLTCTVSGPSLSHFDITWIRQPPGSGLEWIGTISPGVSTYYASWAKSRVTISVDTSLNTVSLKLSSVTAADTATYFCARGGVGSSWKAFDLWGPGTLVTISS VL: ELVMTQSPSSVSASVGDRVTITCQASESISTALAWYQQKPGKAPKLLIYKASTLPSGVPSRFSGSGSGTDFTLTINSLQPEDFATYYCQQGFSSGNVHNAFGGGTKVEIKR | binds | 
h48D2 VH5.SK:VL4 (antibody, human IgG1, kappa, L234A L235A, V domains shown) VH: QEQLEESGGGLVKPGGTLSLTCTVSGPSLSHFDITWIRQAPGKGLEWIGTISPGVSTYYASWAKSRVTISVDTSLNTVSLKLSSVTAADTATYFCARGGVGSSWKAFDLWGPGTLVTISS VL: ELVMTQSPSSVSASVGDRVTITCQASESISTALAWYQQKPGKAPKLLIYKASTLPSGVPSRFSGSGSGTDFTLTINSLQPEDFATYYCQQGFSSGNVHNAFGGGTKVEIKR | binds | 
